The series concerns beta-thrombin. Briefly: binding assay. The note with it: 5' thiol-(CH2)6, 3' (CH2)7-TAMRA, assembled on Au/Ag nanowires; partial signal relative to alpha-thrombin; nanowire fluorescence beacon; purified native …; label: TAMRA 3'; single-stranded DNA.

The values below come from patent US20090298197.

Construct, isoform or probe ends are uncertain for at least one entry. A weaker result is weaker than the reference pair of the same experiment.

As for TGGTTGGTGTGGTTGG [THR Apt3], the binding result is reported as “binds more weakly”.
